In publication PMC5356556:
These are yes or no findings as the source states them, for the method shown. In cells and extracts the contact can be indirect. Some entries that bind do so weakly or less than the wild type.

Amino acid sequences for entries named in this document (tags omitted). A change or cut given only in a name is not applied to a line headed by its entry. Residues count along the entry.
UniProt P04233: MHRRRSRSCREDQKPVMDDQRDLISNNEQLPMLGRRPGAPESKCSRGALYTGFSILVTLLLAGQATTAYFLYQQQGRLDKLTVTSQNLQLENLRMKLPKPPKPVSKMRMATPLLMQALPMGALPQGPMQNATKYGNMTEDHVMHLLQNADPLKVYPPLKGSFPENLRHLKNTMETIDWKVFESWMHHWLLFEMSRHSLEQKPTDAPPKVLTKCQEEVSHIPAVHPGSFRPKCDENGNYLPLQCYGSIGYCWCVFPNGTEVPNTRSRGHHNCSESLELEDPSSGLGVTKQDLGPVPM
UniProt P16070, residues 21-742: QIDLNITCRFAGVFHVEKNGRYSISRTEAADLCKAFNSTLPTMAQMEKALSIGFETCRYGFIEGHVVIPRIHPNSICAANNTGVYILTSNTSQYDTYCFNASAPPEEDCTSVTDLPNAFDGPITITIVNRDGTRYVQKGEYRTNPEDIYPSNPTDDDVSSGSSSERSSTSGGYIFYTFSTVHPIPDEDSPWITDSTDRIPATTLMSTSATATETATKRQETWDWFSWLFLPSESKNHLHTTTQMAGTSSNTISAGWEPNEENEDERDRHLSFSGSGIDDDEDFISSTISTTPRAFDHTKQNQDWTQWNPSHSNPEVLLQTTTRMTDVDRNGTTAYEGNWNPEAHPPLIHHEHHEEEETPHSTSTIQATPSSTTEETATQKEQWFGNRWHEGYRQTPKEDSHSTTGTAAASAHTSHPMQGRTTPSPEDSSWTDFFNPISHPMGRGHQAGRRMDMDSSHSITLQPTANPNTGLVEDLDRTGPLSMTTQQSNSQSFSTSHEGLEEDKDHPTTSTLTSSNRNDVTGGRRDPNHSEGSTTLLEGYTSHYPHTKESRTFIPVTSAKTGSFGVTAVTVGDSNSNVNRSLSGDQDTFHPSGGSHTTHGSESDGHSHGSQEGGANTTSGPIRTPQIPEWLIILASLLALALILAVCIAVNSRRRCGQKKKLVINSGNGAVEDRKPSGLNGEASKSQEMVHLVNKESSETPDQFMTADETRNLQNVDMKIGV

Assays:
[1] = target: Flag-CD74 (human) (UniProt P04233); experiment: co-IP; Flag-CD74 transfected into T47D cells; precipitated with anti-Flag antibody, endogenous CD44 detected
[2] = target: Flag-CD74 (human) (UniProt P04233); experiment: co-IP; Flag-CD74 transfected into MDA-MB-231 cells; precipitated with anti-Flag antibody, endogenous CD44 detected
[3] = target: CD44 (human (endogenous in MDA-MB-231 and T47D)) (UniProt P16070); experiment: co-IP; lysates of MDA-MB-231 cells, endogenous proteins; precipitated with anti-CD44 antibody, CD74 detected

binding [1] | binding [2] | binding [3] | Substance
binds | binds | – | CD44 (from UniProt P16070 21-742) (receptor)
– | – | binds | CD74 (from UniProt P04233 1-296)
